From the M2OR odorant receptor database
Positions count from the first letter of the chain named. This is a selection; strong and weak results do not stand in their true shares. Calls are pooled over several reports, among them a noisy single-well screen. This is one part of the list.

Chains of the proteins cited; added tags and fusions are not shown. A line that says so, or that is headed by a name, gives the form on record, which may keep a tag or linker.
OR7D4, as listed by the source: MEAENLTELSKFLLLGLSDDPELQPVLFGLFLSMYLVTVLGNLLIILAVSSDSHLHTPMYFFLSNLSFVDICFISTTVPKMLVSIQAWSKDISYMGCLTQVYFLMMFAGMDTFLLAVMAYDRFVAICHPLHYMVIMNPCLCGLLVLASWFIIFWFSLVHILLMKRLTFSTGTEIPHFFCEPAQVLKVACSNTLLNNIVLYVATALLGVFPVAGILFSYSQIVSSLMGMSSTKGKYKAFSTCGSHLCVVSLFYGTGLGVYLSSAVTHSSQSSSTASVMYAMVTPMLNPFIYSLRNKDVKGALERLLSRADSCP

Key:
Conditions in all cases: stereoisomer not certain
OR6S1 = system: T1, OR6S1
T1 sequence (whole entry): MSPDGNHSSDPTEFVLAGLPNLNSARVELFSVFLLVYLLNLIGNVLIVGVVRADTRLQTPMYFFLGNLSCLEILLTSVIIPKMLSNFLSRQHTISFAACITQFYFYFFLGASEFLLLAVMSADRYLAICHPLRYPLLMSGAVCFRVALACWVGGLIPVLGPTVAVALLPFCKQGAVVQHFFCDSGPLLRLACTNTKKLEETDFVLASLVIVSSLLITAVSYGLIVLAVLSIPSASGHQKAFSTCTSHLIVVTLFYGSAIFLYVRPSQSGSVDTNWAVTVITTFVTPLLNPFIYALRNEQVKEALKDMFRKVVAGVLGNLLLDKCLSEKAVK
Outline: (§1)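 Each receptor–molecule pair is labelled responsive or non-responsive (inactive) according to whether the original authors judged the measured signal statistically different from baseline. The data were taken from the main text and supplementary material of published papers and checked for typos and inconsistencies. Assay methods differed by source, with transient luciferase assays in mammalian cell lines being common.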

OR6T1 = system: T2, OR6T1
T2 sequence (whole entry): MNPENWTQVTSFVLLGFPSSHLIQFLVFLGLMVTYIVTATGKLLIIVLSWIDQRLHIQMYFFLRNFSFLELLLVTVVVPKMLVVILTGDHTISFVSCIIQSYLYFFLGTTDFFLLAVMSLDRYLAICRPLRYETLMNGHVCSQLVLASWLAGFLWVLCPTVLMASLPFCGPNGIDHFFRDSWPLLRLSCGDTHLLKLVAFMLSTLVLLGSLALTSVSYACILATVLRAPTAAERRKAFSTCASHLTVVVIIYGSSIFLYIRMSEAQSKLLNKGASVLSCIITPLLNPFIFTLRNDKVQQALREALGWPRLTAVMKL
Outline: as §1

OR6V1 (Homo sapiens) = target: T3, OR6V1 (Homo sapiens) (UniProt Q8N148)
T3 sequence (whole entry): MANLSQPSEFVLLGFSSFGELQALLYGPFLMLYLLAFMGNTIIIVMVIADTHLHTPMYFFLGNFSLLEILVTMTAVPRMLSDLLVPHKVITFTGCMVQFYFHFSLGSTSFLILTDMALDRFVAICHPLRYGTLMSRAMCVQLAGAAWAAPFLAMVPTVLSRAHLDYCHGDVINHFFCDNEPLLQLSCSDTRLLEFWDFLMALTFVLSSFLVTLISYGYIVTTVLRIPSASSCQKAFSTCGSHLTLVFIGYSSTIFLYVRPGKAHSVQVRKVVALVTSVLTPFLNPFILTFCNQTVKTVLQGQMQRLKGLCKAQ
Outline: as §1

OR6X1 (Homo sapiens) = target: T4, OR6X1 (Homo sapiens) (UniProt Q8NH79)
T4 sequence (whole entry): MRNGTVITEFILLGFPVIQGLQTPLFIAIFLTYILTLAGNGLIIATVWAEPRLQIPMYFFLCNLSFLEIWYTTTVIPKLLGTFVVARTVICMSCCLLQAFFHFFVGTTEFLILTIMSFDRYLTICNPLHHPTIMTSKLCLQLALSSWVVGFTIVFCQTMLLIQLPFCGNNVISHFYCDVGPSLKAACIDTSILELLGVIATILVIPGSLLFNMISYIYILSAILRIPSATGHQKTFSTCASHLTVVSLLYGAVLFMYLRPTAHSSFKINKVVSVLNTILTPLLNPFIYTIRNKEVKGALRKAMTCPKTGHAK
Outline: as §1

OR6Y1 = system: T5, OR6Y1
T5 sequence (whole entry): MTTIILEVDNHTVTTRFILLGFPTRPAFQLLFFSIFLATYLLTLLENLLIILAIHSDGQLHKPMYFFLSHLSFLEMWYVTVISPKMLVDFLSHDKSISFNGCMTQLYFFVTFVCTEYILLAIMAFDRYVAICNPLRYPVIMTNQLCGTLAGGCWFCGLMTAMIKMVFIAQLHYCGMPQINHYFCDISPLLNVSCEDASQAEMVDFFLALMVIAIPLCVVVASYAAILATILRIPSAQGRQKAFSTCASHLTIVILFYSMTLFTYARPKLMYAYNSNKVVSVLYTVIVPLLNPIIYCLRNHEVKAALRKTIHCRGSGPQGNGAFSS
Outline: as §1

OR7A10 (Homo sapiens) = target: T6, OR7A10 (Homo sapiens) (UniProt O76100)
T6 sequence (whole entry): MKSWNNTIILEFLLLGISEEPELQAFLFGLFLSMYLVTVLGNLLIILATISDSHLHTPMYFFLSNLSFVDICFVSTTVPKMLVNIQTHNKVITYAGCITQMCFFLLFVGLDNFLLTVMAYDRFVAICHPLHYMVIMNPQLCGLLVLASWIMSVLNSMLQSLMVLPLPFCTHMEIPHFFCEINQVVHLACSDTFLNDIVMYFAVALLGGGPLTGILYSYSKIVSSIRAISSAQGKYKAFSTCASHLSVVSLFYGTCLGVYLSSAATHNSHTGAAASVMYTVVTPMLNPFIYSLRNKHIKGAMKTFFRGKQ
Outline: as §1

OR7A17 (Homo sapiens) = target: T7, OR7A17 (Homo sapiens) (UniProt O14581)
T7 sequence (whole entry): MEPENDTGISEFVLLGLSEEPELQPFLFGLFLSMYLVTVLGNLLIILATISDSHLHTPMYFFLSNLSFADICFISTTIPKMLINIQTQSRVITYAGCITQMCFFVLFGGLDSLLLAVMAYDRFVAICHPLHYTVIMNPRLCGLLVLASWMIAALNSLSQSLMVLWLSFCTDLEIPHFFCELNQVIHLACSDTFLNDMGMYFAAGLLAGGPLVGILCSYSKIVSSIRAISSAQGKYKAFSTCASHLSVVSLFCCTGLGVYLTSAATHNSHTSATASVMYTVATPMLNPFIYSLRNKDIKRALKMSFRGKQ
Outline: as §1

OR7A5 (Homo sapiens) = target: T8, OR7A5 (Homo sapiens) (UniProt Q15622)
T8 sequence (whole entry): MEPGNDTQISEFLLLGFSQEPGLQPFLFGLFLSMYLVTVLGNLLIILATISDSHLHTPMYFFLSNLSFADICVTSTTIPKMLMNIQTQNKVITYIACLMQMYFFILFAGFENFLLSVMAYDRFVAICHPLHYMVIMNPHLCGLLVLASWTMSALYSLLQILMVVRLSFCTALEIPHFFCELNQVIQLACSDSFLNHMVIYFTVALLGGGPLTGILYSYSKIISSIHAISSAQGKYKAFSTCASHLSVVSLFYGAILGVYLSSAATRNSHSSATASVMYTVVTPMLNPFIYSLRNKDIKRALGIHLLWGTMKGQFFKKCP
Outline: as §1

OR7C1 = system: T9, OR7C1
T9 sequence (whole entry): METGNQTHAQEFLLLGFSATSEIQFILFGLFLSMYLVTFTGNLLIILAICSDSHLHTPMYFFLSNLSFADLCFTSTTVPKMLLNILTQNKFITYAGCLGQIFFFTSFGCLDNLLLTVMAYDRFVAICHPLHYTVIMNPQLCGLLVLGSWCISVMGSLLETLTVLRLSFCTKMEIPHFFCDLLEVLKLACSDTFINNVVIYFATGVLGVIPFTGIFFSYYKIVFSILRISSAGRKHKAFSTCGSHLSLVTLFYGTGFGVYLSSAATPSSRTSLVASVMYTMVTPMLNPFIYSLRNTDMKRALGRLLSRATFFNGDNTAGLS
Outline: as §1

OR7C2 = system: T10, OR7C2
T10 sequence (whole entry): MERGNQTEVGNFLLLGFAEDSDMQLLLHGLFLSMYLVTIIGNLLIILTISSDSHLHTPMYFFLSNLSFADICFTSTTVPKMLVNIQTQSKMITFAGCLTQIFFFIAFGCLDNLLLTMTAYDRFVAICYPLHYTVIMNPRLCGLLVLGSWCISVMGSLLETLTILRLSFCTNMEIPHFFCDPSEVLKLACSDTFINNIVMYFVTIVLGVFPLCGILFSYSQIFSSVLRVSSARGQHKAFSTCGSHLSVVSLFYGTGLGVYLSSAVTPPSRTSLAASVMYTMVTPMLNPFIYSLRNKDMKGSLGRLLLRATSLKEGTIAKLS
Outline: as §1

OR7D2 = system: T11, OR7D2
T11 sequence (whole entry): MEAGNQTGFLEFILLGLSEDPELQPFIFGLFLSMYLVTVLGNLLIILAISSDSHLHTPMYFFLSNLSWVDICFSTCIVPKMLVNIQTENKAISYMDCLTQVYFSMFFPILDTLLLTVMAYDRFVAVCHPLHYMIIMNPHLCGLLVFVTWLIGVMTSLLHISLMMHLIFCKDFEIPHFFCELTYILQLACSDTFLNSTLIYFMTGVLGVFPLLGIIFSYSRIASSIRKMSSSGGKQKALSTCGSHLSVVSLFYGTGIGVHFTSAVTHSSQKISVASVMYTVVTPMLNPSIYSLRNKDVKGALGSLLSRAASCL
Outline: as §1

OR7D4 (Homo sapiens) = target: T12, OR7D4 (Homo sapiens) (UniProt Q8NG98)
T12 sequence (whole entry): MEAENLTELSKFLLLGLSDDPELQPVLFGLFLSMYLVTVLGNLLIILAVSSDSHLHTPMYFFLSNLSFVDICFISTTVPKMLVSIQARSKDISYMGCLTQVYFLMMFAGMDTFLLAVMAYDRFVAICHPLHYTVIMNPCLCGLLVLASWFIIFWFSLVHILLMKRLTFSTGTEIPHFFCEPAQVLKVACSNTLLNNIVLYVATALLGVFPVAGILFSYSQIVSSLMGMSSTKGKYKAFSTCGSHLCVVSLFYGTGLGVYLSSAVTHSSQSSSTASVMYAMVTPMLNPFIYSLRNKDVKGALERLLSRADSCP
Outline: as §1

OR7D4 = system: T13, OR7D4
T13 sequence (whole entry): T12 sequence (whole entry) with R88W, T133M
Outline: as §1

OR7G1 (Homo sapiens) = target: T14, OR7G1 (Homo sapiens) (UniProt Q8NGA0)
T14 sequence (whole entry): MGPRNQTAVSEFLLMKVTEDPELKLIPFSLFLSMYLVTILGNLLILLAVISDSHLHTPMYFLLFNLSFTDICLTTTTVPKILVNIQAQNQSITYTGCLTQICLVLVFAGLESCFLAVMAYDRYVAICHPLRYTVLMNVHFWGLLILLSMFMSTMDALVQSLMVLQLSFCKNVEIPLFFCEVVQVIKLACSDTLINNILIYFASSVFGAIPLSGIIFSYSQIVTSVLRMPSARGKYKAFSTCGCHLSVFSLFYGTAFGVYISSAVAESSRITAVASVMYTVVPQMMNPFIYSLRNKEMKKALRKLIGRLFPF
Outline: as §1

OR7G2 (Homo sapiens) = target: T15, OR7G2 (Homo sapiens) (UniProt Q8NG99)
T15 sequence (whole entry): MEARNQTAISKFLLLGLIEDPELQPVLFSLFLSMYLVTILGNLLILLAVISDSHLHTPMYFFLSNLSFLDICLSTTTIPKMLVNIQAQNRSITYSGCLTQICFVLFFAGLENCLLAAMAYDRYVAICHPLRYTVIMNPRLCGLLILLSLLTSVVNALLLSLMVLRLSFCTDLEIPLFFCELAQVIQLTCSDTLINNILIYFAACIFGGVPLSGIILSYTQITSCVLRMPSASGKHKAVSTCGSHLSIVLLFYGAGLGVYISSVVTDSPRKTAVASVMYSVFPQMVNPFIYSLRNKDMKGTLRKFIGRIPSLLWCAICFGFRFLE
Outline: as §1

OR7G2 = system: T16, OR7G2
T16 sequence (whole entry): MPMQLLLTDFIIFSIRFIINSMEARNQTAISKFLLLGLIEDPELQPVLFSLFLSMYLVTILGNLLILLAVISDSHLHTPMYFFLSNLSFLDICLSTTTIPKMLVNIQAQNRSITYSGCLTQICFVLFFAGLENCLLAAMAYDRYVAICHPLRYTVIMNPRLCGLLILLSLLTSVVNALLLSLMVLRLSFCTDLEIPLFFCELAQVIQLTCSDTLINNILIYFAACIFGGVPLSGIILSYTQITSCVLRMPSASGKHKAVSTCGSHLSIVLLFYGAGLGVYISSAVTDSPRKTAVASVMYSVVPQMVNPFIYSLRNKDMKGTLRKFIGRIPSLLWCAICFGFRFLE
Outline: as §1

OR7G3 (Homo sapiens) = target: T17, OR7G3 (Homo sapiens) (UniProt Q8NG95)
T17 sequence (whole entry): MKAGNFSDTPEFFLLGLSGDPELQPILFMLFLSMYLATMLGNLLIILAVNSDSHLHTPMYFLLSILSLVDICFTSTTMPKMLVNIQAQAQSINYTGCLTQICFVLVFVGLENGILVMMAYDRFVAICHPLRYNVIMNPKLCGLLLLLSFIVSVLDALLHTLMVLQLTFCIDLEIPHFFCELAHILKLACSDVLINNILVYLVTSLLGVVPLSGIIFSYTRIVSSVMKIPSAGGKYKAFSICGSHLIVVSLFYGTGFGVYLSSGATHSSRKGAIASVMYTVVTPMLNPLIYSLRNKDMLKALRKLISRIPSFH
Outline: as §1

OR8A1 = system: T18, OR8A1
T18 sequence (whole entry): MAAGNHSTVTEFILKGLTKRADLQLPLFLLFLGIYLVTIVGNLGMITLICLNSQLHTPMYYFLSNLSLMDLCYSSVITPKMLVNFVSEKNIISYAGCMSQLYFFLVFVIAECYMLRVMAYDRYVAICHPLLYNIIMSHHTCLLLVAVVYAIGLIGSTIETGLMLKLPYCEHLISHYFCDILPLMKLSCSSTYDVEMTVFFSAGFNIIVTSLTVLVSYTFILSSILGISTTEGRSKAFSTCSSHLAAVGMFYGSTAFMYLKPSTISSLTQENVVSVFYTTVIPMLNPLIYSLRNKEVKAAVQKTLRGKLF
Outline: as §1

OR8B12 (Homo sapiens) = target: T19, OR8B12 (Homo sapiens) (UniProt Q8NGG6)
T19 sequence (whole entry): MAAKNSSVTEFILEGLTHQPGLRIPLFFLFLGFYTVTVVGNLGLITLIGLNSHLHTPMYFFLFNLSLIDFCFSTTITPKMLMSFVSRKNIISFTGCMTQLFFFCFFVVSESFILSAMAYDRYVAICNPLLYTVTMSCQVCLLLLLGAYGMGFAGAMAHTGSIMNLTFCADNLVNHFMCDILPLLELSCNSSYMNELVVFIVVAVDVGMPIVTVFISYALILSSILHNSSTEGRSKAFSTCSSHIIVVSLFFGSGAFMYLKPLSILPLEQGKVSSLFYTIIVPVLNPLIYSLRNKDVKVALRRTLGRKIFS
Outline: as §1

OR8B2 (Homo sapiens) = target: T20, OR8B2 (Homo sapiens) (UniProt Q96RD0)
T20 sequence (whole entry): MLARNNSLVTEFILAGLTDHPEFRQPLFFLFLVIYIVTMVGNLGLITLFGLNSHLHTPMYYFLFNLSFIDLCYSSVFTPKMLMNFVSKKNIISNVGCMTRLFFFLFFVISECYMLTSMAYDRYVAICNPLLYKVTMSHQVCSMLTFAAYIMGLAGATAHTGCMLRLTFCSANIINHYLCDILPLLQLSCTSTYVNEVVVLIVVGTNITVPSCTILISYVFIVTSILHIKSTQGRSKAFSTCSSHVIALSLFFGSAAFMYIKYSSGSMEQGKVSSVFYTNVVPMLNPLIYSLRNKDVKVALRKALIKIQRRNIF
Outline: as §1

Measured: odorant receptor agonist call

CS
active: OR7C1
inactive: all other assays above
